# Results are given in words; binding and its absence hold for the method and conditions named. In cells and extracts the contact can be indirect. These calls come from enrichment with a bait or labelling near it, and not all partners need be listed. Tags and fused reporters may be left off the sequences shown.
# T1: Dhh1−GFP (S. cerevisiae (endogenous in BY4741-derived yeast)) (UniProt P39517)
# T1 sequence: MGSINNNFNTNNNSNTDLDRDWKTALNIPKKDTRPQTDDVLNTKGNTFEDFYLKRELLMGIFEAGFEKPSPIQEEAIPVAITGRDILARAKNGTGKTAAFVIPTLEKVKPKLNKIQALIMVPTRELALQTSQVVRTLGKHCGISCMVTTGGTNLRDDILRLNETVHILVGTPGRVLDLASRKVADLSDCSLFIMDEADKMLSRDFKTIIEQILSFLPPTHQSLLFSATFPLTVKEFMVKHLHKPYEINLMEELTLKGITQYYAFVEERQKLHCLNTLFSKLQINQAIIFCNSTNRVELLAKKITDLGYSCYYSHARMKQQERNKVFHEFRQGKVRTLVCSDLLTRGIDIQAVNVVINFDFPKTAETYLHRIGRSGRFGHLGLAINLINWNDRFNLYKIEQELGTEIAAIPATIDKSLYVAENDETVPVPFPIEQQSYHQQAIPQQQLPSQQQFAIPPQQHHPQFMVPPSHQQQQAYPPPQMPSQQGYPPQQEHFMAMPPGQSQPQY
# T2: Dhh1−GFP (S. cerevisiae (endogenous in BY4741-derived yeast)), P39517
# T2 chain: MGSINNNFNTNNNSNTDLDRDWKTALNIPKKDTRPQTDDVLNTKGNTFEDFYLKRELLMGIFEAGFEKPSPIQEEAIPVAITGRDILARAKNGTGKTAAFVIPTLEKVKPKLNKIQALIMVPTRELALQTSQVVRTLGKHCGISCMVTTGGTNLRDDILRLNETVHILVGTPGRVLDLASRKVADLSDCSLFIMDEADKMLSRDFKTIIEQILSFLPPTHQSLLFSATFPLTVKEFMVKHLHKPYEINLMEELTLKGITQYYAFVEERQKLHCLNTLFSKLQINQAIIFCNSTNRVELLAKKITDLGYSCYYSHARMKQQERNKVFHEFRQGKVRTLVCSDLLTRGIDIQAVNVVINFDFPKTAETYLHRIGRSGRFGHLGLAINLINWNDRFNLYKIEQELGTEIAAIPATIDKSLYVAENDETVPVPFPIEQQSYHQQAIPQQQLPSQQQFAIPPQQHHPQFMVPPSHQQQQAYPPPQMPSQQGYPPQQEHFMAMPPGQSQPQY
# What was measured:
# [1] = biological target: T1, Dhh1−GFP (S. cerevisiae (endogenous in BY4741-derived yeast)); experiment: affinity purification with mass spectrometry; I-DIRT (SILAC): light Dhh1−GFP grindate mixed 1:1 with isotopically heavy BY4741 grindate before resuspending in RB buffer, anti-GFP immunoisolation; light:heavy peptide ratios
# [2] = biological target: T1, Dhh1−GFP (S. cerevisiae (endogenous in BY4741-derived yeast)); experiment: affinity purification with mass spectrometry; Dhh1−GFP captured by anti-GFP IgG cross-linked to Protein-G Dynabeads from cleared lysate of cryo-ground yeast; RB buffer (30 mM K-Hepes pH 7.4, 150 mM KCl, 2 mM MgCl2, 0.2% NP-40, 0.1% Tween-20, 1 mM DTT, RNase inhibitor), 30 min at 4°; five purifications (two +glucose YPD, three 30 min −glucose YEP); hits filtered by SAINT against CRAPome controls
# [3] = biological target: T2, Dhh1−GFP (S. cerevisiae (endogenous in …)); experiment: as above; conditions: remark: other sources report otherwise
# [4] = biological target: T2, Dhh1−GFP (S. cerevisiae (endogenous in …)); experiment: affinity purification with mass spectrometry; I-DIRT (SILAC): light Dhh1−GFP grindate mixed 1:1 with isotopically heavy BY4741 grindate before resuspending in RB buffer, anti-GFP immunoisolation; light:heavy peptide ratios; conditions: remark: other sources report otherwise
binding [1],binding [2],binding [3],binding [4],Binder
binds,binds,–,–,"Dcp1 (protein, UniProt Q12517 1-231) MTGAATAAENSATQLEFYRKALNFNVIGRYDPKIKQLLFHTPHASLYKWDFKKDEWNKLEYQGVLAIYLRDVSQNTNLLPVSPQEVDIFDSQNGSNNIQVNNGSDNSNRNSSGNGNSYKSNDSLTYNCGKTLSGKDIYNYGLIILNRINPDNFSMGIVPNSVVNKRKVFNAEEDTLNPLECMGVEVKDELVIIKNLKHEVYGIWIHTVSDRQNIYELIKYLLENEPKDSFA"
–,–,binds,binds,"Dcp2, P53550 1-970 (protein) MSLPLRHALENVTSVDRILEDLLVRFIINCPNEDLSSVERELFHFEEASWFYTDFIKLMNPTLPSLKIKSFAQLIIKLCPLVWKWDIRVDEALQQFSKYKKSIPVRGAAIFNENLSKILLVQGTESDSWSFPRGKISKDENDIDCCIREVKEEIGFDLTDYIDDNQFIERNIQGKNYKIFLISGVSEVFNFKPQVRNEIDKIEWFDFKKISKTMYKSNIKYYLINSMMRPLSMWLRHQRQIKNEDQLKSYAEEQLKLLLGITKEEQIDPGRELLNMLHTAVQANSNNNAVSNGQVPSSQELQHLKEQSGEHNQQKDQQSSFSSQQQPSIFPSLSEPFANNKNVIPPTMPMANVFMSNPQLFATMNGQPFAPFPFMLPLTNNSNSANPIPTPVPPNFNAPPNPMAFGVPNMHNLSGPAVSQPFSLPPAPLPRDSGYSSSSPGQLLDILNSKKPDSNVQSSKKPKLKILQRGTDLNSIKQNNNDETAHSNSQALLDLLKKPTSSQKIHASKPDTSFLPNDSVSGIQDAEYEDFESSSDEEVETARDERNSLNVDIGVNVMPSEKDSRRSQKEKPRNDASKTNLNASAESNSVEWGPGKSSPSTQSKQNSSVGMQNKYRQEIHIGDSDAYEVFESSSDEEDGKKLEELEQTQDNSKLISQDILKENNFQDGEVPHRDMPTESNKSINETVGLSSTTNTVKKVPKVKILKRGETFASLANDKKAFDSSSNVSSSKDLLQMLRNPISSTVSSNQQSPKSQHLSGDEEIMMMLKRNSVSKPQNSEENASTSSINDANASELLGMLKQKEKDITAPKQPYNVDSYSQKNSAKGLLNILKKNDSTGYPRTEGGPSSEMSTSMKRNDATNNQELDKNSTELLNYLKPKPLNDGYENISNKDSSHELLNILHGNKNSSAFNNNVYATDGYSLASDNNENSSNKLLNMLQNRSSAINEPNFDVRSNGTSGSNELLSILHRK"
